Measurements reported in PubChem BioAssay AID1259254 (NCATS, 2017)
Shown is one part, drawn at random, of about 59,000 reagents tested. About 1,550 of all reagents (2.6%) count as active. 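G2 share is only a proxy for re-replication; each gene was hit by three separate siRNAs, and active genes were retested.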 Reagents against one gene are numbered here. Not all columns of the deposit are shown. The record does not give: the amount of reagent.

Purpose: 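Genome-wide screen for genes that prevent DNA re-replication in cancer cells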 (primary screen)
Cells: human HCT116 colorectal cancer cells
Reagents: single siRNA against human genes
Timing: 3 days
Measurement: 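Nuclei stained with Hoechst and imaged; cell-cycle phase assigned by DNA content; G2 share scaled per plate, non-targeting siRNA 0%, GMNN siRNA 100%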
Direction: G2 robust z-score and G2 cells, % of GMNN control: higher = more G2 cells, more excess DNA replication
Rule for the call: 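An siRNA counts as active if its G2 robust z-score lies at least 5 MADs above the screen median; here such calls match roughly 38% of GMNN control or more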

For RAB9A #1, the values are G2 robust z-score 0.529; G2 cells, % of GMNN control 6.69; inactive.
With knock-down of RAB9A #2, the record shows G2 robust z-score -0.726; G2 cells, % of GMNN control -2.14; inactive.
After knock-down of RAB9A #3 the results were G2 robust z-score 0.153; G2 cells, % of GMNN control 4.04; inactive.
HEXIM1 #1 gave G2 robust z-score -0.747; G2 cells, % of GMNN control -2.29; inactive.
For HEXIM1 #2, the entry reads G2 robust z-score 5.28; G2 cells, % of GMNN control 40.1; active.
After knock-down of HEXIM1 #3 the results were G2 robust z-score -0.593; G2 cells, % of GMNN control -1.2; inactive.
Knock-down of PAX9 #1 came out at: G2 robust z-score -1.18; G2 cells, % of GMNN control -5.36; inactive.
Silencing of PAX9 #2 resulted in: G2 robust z-score 2.61; G2 cells, % of GMNN control 21.3; inactive.
Knock-down of PAX9 #3 came out at: G2 robust z-score 0.341; G2 cells, % of GMNN control 5.37; inactive.
With knock-down of CHL1 #1, the record shows G2 robust z-score -0.993; G2 cells, % of GMNN control -4.02; inactive.
With knock-down of CHL1 #2, the screen gave G2 robust z-score 0.0965; G2 cells, % of GMNN control 3.65; inactive.
With knock-down of CHL1 #3, the record shows G2 robust z-score -1.1; G2 cells, % of GMNN control -4.76; inactive.
For MTX3 #1 the deposit lists G2 robust z-score -0.52; G2 cells, % of GMNN control -0.693; inactive.
After knock-down of MTX3 #2, the record shows G2 robust z-score -0.0991; G2 cells, % of GMNN control 2.27; inactive.
For MTX3 #3, the values are G2 robust z-score 0.501; G2 cells, % of GMNN control 6.49; inactive.
FDX2 #1 scored G2 robust z-score 0.724; G2 cells, % of GMNN control 8.06; inactive.
Against FDX2 #2, the entry reads G2 robust z-score -0.792; G2 cells, % of GMNN control -2.6; inactive.
After knock-down of FDX2 #3 the results were G2 robust z-score -0.732; G2 cells, % of GMNN control -2.18; inactive.
With knock-down of CSTF2 #1, the record shows G2 robust z-score 1.58; G2 cells, % of GMNN control 14.1; inactive.
Silencing of CSTF2 #2 resulted in: G2 robust z-score -0.068; G2 cells, % of GMNN control 2.49; inactive.
With knock-down of CSTF2 #3, the screen gave G2 robust z-score -1.54; G2 cells, % of GMNN control -7.89; inactive.
Against POPDC3 #1 the deposit lists G2 robust z-score -0.178; G2 cells, % of GMNN control 1.72; inactive.
POPDC3 #2 gave G2 robust z-score 0.3; G2 cells, % of GMNN control 5.08; inactive.
For POPDC3 #3, the values are G2 robust z-score -0.166; G2 cells, % of GMNN control 1.8; inactive.

Only “G2 cells, % of GMNN control” (3 entries from above):
MTX3 #2 = 2.27
MTX3 #3 = 6.49
FDX2 #1 = 8.06
